These are yes or no findings as the source states them, for the method shown. In cells and extracts the contact can be indirect. Some results given as binding are weak or reduced against the parent protein; the word gives no strength. For some assays here: Tags and fused reporters may be left off the sequences shown. One block for each molecule: values may come before it.
Experiments:
[1] = target: endogenous WRI1 in Arabidopsis plant extract (Arabidopsis thaliana) (UniProt Q6X5Y6); assay: GST pull-down from WT plant extract
[2] = target: T1, in vitro translated, [35S]-methionine labeled BPM1 (Arabidopsis thaliana) (UniProt Q8L765); assay: GST pull-down of in vitro translated, radiolabeled BPM1
T1 sequence ([35S]-methionine labeled (printed '[^355]-methionine labeled'), looked up): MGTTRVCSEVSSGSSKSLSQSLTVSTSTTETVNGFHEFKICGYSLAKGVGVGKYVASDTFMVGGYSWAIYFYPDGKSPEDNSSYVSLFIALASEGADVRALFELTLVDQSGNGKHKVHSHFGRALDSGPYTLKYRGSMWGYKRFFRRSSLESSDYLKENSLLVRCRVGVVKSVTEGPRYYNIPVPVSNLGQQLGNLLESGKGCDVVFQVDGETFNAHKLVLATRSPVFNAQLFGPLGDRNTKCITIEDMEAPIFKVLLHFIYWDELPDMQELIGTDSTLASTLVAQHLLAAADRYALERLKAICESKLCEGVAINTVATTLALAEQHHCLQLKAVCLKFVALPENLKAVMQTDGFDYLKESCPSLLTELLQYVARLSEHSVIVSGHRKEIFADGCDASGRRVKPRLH

The chains behind the UniProt entries cited, without tags or fusion partners.
UniProt Q6X5Y6: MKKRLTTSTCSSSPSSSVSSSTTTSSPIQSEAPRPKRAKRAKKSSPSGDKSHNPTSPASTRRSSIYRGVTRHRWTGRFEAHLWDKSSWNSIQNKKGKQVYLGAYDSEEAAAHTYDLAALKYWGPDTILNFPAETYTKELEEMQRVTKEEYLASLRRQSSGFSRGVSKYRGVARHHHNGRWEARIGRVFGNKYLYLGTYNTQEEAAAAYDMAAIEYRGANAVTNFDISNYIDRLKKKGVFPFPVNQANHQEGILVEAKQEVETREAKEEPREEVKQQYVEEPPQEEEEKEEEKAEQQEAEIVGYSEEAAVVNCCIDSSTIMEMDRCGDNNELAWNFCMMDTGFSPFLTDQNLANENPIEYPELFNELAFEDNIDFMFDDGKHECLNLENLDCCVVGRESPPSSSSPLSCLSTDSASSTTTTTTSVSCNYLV

[3] = target: endogenous WRI1 in Arabidopsis plant extract (Arabidopsis thaliana) (UniProt Q6X5Y6); assay: GST pull-down from plant extract, Western blot with α-WRI1
[4] = target: T2, GST:CUL3a (Arabidopsis thaliana) (UniProt Q9ZVH4); assay: pull-down with purified E. coli proteins (His:WRI1 on nickel resin, GST:BPM1 and GST:CUL3a added)
T2 sequence (looked up): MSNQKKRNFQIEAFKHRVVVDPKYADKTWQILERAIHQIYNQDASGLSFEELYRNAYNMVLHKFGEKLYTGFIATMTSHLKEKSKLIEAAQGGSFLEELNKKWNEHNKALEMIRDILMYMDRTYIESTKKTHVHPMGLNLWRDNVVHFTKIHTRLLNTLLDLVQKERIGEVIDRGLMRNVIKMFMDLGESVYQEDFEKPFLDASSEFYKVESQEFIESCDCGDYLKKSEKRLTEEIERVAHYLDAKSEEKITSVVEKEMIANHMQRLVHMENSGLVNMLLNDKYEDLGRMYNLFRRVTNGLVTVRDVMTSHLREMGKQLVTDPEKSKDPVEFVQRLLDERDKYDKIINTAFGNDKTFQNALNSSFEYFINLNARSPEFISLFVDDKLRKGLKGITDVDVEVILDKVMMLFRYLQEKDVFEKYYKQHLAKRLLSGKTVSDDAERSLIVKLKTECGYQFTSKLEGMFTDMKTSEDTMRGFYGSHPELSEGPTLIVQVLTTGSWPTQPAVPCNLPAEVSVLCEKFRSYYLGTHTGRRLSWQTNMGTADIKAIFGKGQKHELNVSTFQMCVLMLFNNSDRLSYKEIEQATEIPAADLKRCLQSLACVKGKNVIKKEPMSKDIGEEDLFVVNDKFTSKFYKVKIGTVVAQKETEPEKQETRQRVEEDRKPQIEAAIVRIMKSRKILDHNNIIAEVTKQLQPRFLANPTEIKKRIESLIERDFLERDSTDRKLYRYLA

[5] = target: His:WRI1 (Arabidopsis thaliana) (UniProt Q6X5Y6); assay: as above

- binding [1]: binds
- binding [2]: binds
- binding [3]: binds
Molecule: GST:WRI1 (from UniProt Q6X5Y6 1-430)

- binding [4]: binds
- binding [5]: binds
B1: GST:BPM1 (protein, Arabidopsis thaliana, UniProt Q8L765 1-407, looked up, not shown: a dimerising Fc or GST)
chain: T1 sequence ([35S]-methionine labeled (printed '[^355]-methionine labeled'), looked up)
